Measured values reported in the supplement of paper PMC10849652.
The list shows a part of the results.

Sequences of proteins named here, by UniProt entry; tags and fusion partners are left off. A change or cut given only in a name is not applied to a line headed by its entry.
UniProt Q9NRF9: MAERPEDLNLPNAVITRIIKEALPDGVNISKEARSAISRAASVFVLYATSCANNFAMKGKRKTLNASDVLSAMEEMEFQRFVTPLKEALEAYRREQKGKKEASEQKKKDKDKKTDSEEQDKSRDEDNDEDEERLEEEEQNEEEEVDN
UniProt Q9HBL7: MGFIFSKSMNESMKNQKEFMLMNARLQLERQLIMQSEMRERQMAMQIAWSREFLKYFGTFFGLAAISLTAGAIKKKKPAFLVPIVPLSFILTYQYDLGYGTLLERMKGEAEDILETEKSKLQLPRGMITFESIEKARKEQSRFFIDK
UniProt Q9Y2Y1: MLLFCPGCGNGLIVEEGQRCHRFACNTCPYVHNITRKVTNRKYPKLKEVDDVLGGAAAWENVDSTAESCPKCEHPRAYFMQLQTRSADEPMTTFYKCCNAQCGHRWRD
UniProt Q92871: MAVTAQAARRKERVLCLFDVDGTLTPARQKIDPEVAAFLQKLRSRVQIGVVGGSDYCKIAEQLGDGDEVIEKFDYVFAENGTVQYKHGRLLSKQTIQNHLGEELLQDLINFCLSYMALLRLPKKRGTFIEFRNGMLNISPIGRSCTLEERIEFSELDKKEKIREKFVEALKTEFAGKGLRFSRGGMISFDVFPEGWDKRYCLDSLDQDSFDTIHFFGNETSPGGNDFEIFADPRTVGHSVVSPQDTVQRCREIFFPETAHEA
UniProt Q9BUI4: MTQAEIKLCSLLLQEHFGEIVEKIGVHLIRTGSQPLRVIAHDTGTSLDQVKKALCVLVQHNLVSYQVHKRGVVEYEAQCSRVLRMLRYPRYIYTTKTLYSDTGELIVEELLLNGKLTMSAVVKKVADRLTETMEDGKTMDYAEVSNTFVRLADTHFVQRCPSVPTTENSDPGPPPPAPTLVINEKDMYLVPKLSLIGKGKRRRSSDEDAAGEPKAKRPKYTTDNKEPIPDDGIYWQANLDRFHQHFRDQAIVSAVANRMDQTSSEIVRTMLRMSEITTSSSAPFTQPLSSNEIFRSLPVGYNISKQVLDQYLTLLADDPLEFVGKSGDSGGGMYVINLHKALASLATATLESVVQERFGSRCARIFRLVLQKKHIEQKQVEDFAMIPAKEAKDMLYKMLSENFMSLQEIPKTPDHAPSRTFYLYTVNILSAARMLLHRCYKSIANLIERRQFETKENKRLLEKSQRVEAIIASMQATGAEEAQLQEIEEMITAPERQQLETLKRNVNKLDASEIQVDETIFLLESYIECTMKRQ
UniProt Q9NP80: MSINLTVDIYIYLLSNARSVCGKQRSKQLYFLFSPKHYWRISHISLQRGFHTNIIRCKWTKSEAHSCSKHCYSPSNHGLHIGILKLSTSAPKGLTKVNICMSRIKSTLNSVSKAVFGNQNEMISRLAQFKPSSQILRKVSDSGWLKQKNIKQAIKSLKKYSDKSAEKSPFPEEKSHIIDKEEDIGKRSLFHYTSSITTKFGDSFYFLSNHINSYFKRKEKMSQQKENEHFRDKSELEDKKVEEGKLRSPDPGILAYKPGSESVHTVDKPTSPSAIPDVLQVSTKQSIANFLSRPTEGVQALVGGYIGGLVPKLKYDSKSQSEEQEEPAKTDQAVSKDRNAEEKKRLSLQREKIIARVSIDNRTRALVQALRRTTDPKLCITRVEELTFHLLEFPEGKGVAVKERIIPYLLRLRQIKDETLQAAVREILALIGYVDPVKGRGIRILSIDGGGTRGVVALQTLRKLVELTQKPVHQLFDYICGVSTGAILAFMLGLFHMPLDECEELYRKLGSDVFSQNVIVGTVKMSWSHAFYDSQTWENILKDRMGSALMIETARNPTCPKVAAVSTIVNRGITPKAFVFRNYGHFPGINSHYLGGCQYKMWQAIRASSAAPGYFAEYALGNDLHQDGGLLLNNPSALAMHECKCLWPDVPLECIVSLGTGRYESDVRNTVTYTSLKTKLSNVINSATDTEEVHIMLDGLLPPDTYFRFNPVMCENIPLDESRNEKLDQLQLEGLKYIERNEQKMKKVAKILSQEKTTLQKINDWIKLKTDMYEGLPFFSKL
UniProt Q8TF01: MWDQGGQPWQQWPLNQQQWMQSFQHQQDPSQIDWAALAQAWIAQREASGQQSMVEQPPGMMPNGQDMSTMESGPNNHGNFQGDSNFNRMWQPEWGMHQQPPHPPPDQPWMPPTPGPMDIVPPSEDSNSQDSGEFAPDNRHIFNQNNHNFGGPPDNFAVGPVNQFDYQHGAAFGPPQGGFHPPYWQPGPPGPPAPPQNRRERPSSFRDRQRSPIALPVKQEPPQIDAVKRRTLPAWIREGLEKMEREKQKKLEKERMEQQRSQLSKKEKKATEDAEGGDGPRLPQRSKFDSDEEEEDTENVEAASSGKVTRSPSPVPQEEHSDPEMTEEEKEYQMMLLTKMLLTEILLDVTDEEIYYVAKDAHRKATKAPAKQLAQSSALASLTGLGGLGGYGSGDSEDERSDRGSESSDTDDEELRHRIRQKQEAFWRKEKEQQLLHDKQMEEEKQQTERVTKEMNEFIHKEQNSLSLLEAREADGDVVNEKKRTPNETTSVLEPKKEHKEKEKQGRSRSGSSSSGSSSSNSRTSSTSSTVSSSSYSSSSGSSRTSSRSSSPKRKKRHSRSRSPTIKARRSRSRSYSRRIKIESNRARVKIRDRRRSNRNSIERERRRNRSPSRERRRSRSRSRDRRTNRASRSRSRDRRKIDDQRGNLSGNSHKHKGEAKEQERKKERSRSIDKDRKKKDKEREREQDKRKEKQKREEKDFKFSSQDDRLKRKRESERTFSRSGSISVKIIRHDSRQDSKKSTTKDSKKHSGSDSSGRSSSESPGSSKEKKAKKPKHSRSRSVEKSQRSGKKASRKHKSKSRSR
UniProt Q99575: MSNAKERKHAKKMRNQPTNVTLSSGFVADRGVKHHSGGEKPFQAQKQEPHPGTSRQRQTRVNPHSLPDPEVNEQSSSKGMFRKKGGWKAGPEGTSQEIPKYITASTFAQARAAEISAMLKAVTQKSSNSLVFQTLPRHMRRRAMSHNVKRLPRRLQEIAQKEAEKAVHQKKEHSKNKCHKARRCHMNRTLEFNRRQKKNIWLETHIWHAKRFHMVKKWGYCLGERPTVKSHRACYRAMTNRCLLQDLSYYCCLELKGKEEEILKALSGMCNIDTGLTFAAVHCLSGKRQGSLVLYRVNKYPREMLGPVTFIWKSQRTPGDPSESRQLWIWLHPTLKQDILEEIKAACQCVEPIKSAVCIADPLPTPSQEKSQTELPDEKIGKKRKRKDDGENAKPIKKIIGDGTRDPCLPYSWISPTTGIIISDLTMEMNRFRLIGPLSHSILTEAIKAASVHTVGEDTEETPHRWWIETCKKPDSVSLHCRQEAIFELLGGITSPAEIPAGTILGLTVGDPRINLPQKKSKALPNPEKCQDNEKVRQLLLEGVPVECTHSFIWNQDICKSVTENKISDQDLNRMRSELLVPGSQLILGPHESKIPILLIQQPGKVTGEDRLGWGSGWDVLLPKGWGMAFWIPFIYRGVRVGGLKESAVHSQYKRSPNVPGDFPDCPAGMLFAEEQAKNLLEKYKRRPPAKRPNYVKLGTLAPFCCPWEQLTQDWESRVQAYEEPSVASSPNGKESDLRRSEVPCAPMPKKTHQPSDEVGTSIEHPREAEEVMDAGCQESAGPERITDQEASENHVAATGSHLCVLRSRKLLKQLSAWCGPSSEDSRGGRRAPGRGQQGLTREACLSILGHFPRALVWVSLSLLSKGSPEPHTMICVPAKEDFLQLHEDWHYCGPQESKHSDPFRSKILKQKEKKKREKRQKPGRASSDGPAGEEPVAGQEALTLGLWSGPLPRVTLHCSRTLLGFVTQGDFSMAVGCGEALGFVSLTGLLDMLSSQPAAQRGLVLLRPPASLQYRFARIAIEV
UniProt Q9H1D9: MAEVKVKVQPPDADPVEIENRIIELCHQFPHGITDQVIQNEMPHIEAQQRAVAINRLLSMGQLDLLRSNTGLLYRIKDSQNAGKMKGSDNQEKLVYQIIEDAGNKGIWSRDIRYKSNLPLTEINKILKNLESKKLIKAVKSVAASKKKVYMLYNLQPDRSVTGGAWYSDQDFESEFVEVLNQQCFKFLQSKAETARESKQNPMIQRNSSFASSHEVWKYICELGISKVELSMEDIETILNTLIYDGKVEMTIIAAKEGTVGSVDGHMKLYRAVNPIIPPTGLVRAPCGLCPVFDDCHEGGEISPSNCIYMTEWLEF
UniProt P54278: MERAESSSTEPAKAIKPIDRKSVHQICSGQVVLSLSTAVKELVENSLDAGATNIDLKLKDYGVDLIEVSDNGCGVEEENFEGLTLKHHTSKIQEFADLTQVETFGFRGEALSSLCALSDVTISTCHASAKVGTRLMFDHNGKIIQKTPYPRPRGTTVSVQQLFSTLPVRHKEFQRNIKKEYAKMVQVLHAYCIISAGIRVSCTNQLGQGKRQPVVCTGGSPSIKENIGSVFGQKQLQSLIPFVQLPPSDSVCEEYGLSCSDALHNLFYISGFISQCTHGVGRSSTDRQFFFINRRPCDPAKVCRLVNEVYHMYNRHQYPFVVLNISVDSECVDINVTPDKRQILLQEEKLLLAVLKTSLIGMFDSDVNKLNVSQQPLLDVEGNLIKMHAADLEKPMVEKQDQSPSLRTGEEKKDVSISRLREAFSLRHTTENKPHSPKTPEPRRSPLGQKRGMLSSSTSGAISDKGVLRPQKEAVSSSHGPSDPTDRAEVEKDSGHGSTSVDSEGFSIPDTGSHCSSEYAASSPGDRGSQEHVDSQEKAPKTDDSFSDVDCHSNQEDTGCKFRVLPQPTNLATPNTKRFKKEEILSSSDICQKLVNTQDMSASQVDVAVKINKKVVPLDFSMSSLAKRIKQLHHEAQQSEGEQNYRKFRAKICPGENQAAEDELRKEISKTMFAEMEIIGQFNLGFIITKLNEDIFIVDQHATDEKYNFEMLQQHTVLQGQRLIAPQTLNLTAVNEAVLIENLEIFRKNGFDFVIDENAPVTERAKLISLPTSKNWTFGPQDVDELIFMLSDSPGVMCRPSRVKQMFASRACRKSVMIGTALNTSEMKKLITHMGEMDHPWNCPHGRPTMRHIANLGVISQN
UniProt Q8NBL1: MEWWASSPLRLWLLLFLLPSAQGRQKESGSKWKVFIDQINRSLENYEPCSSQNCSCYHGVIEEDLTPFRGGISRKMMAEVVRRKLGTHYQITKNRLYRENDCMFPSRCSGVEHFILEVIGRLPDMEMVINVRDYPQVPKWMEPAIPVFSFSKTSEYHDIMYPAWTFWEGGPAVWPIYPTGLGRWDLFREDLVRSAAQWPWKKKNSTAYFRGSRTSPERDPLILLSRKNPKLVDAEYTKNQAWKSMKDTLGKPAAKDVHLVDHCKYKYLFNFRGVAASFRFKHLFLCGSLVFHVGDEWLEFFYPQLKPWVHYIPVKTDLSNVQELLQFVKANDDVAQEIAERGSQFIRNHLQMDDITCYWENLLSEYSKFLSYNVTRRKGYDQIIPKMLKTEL
UniProt Q02809: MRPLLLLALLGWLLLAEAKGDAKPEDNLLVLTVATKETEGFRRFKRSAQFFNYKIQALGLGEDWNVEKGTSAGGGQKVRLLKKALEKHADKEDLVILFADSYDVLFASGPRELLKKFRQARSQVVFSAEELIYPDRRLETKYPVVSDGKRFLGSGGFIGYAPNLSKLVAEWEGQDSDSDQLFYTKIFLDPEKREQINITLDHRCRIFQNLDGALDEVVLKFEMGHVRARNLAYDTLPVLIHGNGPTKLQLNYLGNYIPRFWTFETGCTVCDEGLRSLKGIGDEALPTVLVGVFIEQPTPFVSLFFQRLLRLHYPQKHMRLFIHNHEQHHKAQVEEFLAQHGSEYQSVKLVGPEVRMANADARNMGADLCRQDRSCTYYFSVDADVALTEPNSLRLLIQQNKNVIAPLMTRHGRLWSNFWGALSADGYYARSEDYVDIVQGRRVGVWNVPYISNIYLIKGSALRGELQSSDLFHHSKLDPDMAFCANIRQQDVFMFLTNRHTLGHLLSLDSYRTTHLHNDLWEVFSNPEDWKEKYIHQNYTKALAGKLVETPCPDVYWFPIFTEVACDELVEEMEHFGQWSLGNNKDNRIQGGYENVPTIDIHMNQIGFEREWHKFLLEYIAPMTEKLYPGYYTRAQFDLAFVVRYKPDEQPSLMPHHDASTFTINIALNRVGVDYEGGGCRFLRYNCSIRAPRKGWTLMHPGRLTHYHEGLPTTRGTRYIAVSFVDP
UniProt Q9NR33: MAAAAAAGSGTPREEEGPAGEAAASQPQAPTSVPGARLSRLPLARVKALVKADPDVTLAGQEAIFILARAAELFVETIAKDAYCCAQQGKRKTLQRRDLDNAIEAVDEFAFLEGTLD
UniProt P0DPB6, whole entry, looked up: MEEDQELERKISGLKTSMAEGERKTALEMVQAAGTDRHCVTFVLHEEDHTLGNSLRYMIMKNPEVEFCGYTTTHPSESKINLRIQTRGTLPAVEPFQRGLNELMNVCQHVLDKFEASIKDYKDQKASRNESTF
UniProt Q6P1K2: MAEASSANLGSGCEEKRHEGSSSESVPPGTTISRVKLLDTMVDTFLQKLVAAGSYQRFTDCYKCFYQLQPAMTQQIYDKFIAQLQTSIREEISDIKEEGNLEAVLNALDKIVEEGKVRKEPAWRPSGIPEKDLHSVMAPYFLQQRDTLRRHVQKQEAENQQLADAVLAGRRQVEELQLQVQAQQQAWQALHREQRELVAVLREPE

These targets were tested with C1=CC=C(C=C1)C2=NC(=C(N2)C3=CC=NC=C3)C4=CC(=C(C=C4)Cl)O (assay: log2 fold change, soluble protein after heating vs DMSO (PISA); higher = thermal stabilisation; K562 lysate, 10 uM; active = over 0.2 and 3.5 SD of the protein, either way, in both replicates (recomputed)).
Summary of the method: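 Following dounce homogenisation of K562 pellets in PBS pH 7.4 with 1 mM MgCl2, crude extract at 1 mg/mL protein was incubated for 30 min with 10 μM compound. Aliquots were then heated for 3 min over 48°C-58°C and pooled, NP-40 was added to 0.5% at 4°C, and soluble protein was recovered as the supernatant at 21,000xg for 90 min. Channel-sum-equalised TMTpro 16plex LC-MS/MS quantified this protein. Each value, from duplicates, is a log-two fold change in thermal stability relative to solvent controls.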

log2 fold change, inactive:
PLEKHM2 (UniProt Q8IWE5) -0.012
PPAN isoform 3 (UniProt Q9NQ55) -0.001
POTEF (UniProt A5A3E0) -0.015
POLE3 (UniProt Q9NRF9) 0.031
PLGRKT (UniProt Q9HBL7) 0.005
POGLUT3 (UniProt Q7Z4H8) -0.001
POMGNT1 isoform 2 (UniProt Q8WZA1) 0.193
PMPCB (UniProt O75439) -0.088
POLR3K (UniProt Q9Y2Y1) 0.095
PNN (UniProt Q9H307) 0
POU2F1 isoform 6 (UniProt P14859) 0.019
PMM1 (UniProt Q92871) -0.078
PMPCA (UniProt Q10713) 0.043
POLR3C (UniProt Q9BUI4) 0.006
PNPLA8 (UniProt Q9NP80) -0.03
PLXNA3 (UniProt P51805) 0.004
POLD3 (UniProt Q15054) 0.01
PPID (UniProt Q08752) -0.029
PNISR (UniProt Q8TF01) -0.012
POP1 (UniProt Q99575) -0.002
POLR3F (UniProt Q9H1D9) -0.019
PMS2 (UniProt P54278) -0.028
POLR2H (UniProt P52434) -0.013
PPIA (UniProt P62937) -0.005
POLR3B (UniProt Q9NW08) 0.012
POGLUT1 (UniProt Q8NBL1) -0.043
POMP (UniProt Q9Y244) -0.024
PLOD1 (UniProt Q02809) -0.025
POLE4 (UniProt Q9NR33) 0.013
POLR2A, A0A590UJN4 -0.004
PPFIA2 (UniProt O75334) 0.012
POLR1D (UniProt P0DPB6) -0.019
PNPT1 (UniProt Q8TCS8) -0.016
PODXL2 (UniProt Q9NZ53) 0.026
POLR3D (UniProt P05423) 0.007
POM121 (UniProt Q96HA1) -0.018
PMF1 (UniProt Q6P1K2) 0.013
PPCS (UniProt Q9HAB8) -0.017
POLR1A (UniProt O95602) 0.003

Pulled one by one from above, 3 records:
log2 fold change, inactive:
POLR3K (UniProt Q9Y2Y1) 0.095
PNPLA8 (UniProt Q9NP80) -0.03
POLR2H (UniProt P52434) -0.013
